Data as given in PubChem BioAssay AID1259308 (NCATS, 2017)

Assay: 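Candidate targets for better recombinant protein yield in mammalian cells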 (primary screen)
System: human HEK293 embryonic kidney cells stably expressing firefly luciferase (HEK-CMV-Luc2-Hygro)
Reagent: single siRNA against human genes, 0.8 pmol siRNA per well
Duration: 72 h
Read-out: 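Reporter luminescence and viable-cell signal on separate replicate plates, given as percent of non-targeting control and median/MAD z-scores, plus per-cell luciferase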
Direction: total luciferase, z-score and total luciferase, % of control: higher = more reporter protein produced
Hit rule: 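Active when the median/MAD z-score for overall luciferase is greater than 3; a gene was taken forward for validation with new siRNAs if at least two of its three siRNAs passed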
Meaning of the calls: active = raised luciferase; inactive = no rise
Shown is an unselected part of about 59,000 reagents. About 1,510 of them (2.6%) were called active. 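Calls use total luciferase alone and ignore viability, so some active siRNAs may act by altering cell number.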 Unmarked entries are inactive. Reagents against one gene are numbered here. Further read-outs or replicates are left out here. Reagent sequences are not shown.

gene knocked down | siRNA no. | total luciferase, z-score | total luciferase, % of control
PLA2G2F | 1 | -0.505 | 71.8
PLA2G2F | 2 | 0.035 | 82.6
PLA2G2F | 3 | -0.259 | 76.7
C4orf46 | 1 | 0.0745 | 83.4
C4orf46 | 2 | 0.428 | 90.4
C4orf46 | 3 | 0.347 | 88.8
RASSF4 | 1 | 0.186 | 85.6
RASSF4 | 2 | 1.05 | 103
RASSF4 | 3 | -0.369 | 74.6
BATF | 1 | 0.469 | 91.2
BATF | 2 | -1.46 | 52.9
BATF | 3 | 0.914 | 100
CD276 | 1 | 0.729 | 96.4
CD276 | 2 | 1.29 | 108
CD276 | 3 | 0.0401 | 82.7
SLC13A3 | 1 | -0.546 | 71
SLC13A3 | 2 | 0.662 | 95
SLC13A3 | 3 | 1.15 | 105
LBX2 | 1 | 0.387 | 89.6
LBX2 | 2 | -0.306 | 75.8
LBX2 | 3 | -0.676 | 68.4
TCAP | 1 | 0.475 | 91.3
TCAP | 2 | -0.477 | 72.4
TCAP | 3 | 1.13 | 104
RAB22A | 1 | 1.12 | 104
RAB22A | 2 | 1.02 | 102
RAB22A | 3 | -0.33 | 75.3
CCR6 | 1 | 0.0438 | 82.8
CCR6 | 2 | 1.25 | 107
CCR6 | 3 | 0.801 | 97.8

Next part (6 carried over from the part before).
gene knocked down | siRNA no. | total luciferase, z-score | total luciferase, % of control
RAB22A | 1 | 1.12 | 104
RAB22A | 2 | 1.02 | 102
RAB22A | 3 | -0.33 | 75.3
CCR6 | 1 | 0.0438 | 82.8
CCR6 | 2 | 1.25 | 107
CCR6 | 3 | 0.801 | 97.8
IFNL2 | 1 | -0.066 | 80.6
IFNL2 | 2 | -0.754 | 66.9
IFNL2 | 3 | 1.37 | 109
ZMAT5 | 1 | -0.931 | 63.4
ZMAT5 | 2 | -1.39 | 54.1
ZMAT5 | 3 | -0.902 | 64
USB1 | 1 | -1.37 | 54.6
USB1 | 2 | 0.205 | 86
USB1 | 3 | -0.697 | 68
PRKCA | 1 | -0.011 | 81.7
PRKCA | 2 | -1.24 | 57.2
PRKCA | 3 | -0.643 | 69.1
DNAJC7 | 1 | 0.238 | 86.6
DNAJC7 | 2 | -2.1 | 40
DNAJC7 | 3 | 0.639 | 94.6
KLF1 | 1 | -0.319 | 75.5
KLF1 | 2 | -0.873 | 64.5
KLF1 | 3 | 1.18 | 105
H3-3B | 1 | 0.287 | 87.6
H3-3B | 2 | -0.0795 | 80.3
H3-3B | 3 | -0.642 | 69.1
EGR3 | 1 | 0.723 | 96.3
EGR3 | 2 | -1.55 | 51.1
EGR3 | 3 | 0.449 | 90.8
HSP90B1 | 1 | -0.0281 | 81.3
HSP90B1 | 2 | -1.35 | 55
HSP90B1 | 3 | 2.33 | 128
